Data set [1] in a line: general procedure: Fmoc solid-phase peptide synthesis; Rink amide resin (1.0 mmol/g); HATU/DIEA (cyclization). To be noted: conjugation step, TFA salt.
Data set [2] can be described thus: general procedure: Fmoc solid-phase peptide synthesis; Rink amide resin; HATU/DIEA (cyclization). Particulars: whole synthesis, scale 1 mmol, TFA salt.

As for “5'-GGCCAAACCTCGGCTTACCTGAAAT-3'-C3-NH-PEG12-CPP12 (all PMO monomers) (SEQ ID NO: 244)”, the “final purity (method not given)” value in data set [1] is listed as greater than 99%.
In the case of “cyclo(Phe-D-Phe-SNal-Arg-D-Arg-Arg-D-Arg-γ-Glu)-b-Ala-b-Ala-Lys(Maleimide)-NH2”, in data set [2], the crude mass is given as 2 g and the crude yield came to 70.1%.

The values above are taken from patent publication US20230020092 (published 2023).
